Values joined by “and” are separate entries in the source; they are usually repeats but may differ in a detail not shown here. Identical values can stand only once. The list shows a part of the results. These are further read-outs of the screen, such as a control signal, another cell line or another target. No call is given for them. The list favours compounds with an active or inconclusive main result. For some assays here: Words in brackets tell the shape of the fitted curve; partial curves, single points and poor fits give uncertain potencies.
Key:
[1] = qHTS Assay for Inhibitors of PDE-IV (AID 607); details: HEK293 ACTOne CNG channel cells, membrane potential fluorescence; measured here: parental cell counter-screen
Summary of the method: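 Cell-based read-out of cAMP via a modified cyclic nucleotide-gated channel and membrane potential dye (535/590 nm) in HEK293 cells expressing PDE4 endogenously. Compounds tested up to 22.9 uM final; 100 uM RO 20-1724 reference.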

[2] = qHTS Assay for Lipid Storage Modulators (AID 1519); details: Drosophila S3 cells, BODIPY lipid droplet/cell ratio, laser cytometry, cells loaded with oleic acid
Summary of the method: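 Cells seeded at 5,000 per well were treated with compounds over a concentration series and loaded with oleic acid (400 uM, as added). Lipid droplet fluorescence (488 nm excitation, 500-530 nm channel) was read by laser-scanning cytometry and normalized to 20 uM Triacsin C.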

[3] = qHTS assay for small molecule antagonists of peroxisome proliferator-activated receptor gamma signaling (AID 588537); details: HEK293 PPARg-UAS-bla, beta-lactamase ratio, antagonist mode; measured here: W460 blue channel
Summary of the method: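 Step one: plate 3000 HEK293 UAS-bla cells per well in medium with 1% stripped serum and hold 6-6.5 h at 37 C. Step two: add compound and 50 nM agonist for 16 h. Step three: CCF4 loading, fluorescence read.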

[4] = qHTS assay for small molecule agonists of retinoid X receptor alpha signaling (AID 588544); details: HEK293T RXRa-UAS-bla, beta-lactamase reporter, 18 h; 530 nm emission
[5] = measured here: cell count channel max response
[6] = measured here: cell number channel AC50
[7] = measured here: lipid (BODIPY) channel AC50
[8] = measured here: lipid channel max response

SMILES | AC50 [1] | max response [2, 5] | AC50 [2, 6] | AC50 [2, 7] | max response [2, 8] | AC50 [3] | max response [4]
Nc1c2c(nc3ccccc13)CCCC2 | 20 µM [falling, partial curve, poor fit] | 26.8% and 37.2% | 0.00891 µM [rising, full curve, poor fit] | 3.16 µM [rising, full curve, poor fit] and 3.98 µM [rising, partial curve, poor fit] | 36.4% and 54.2% | 10 µM [falling, partial curve, poor fit] | 29.6%
O=S(=O)(NCCCCCCc1ccccc1)c1cccc2c(Cl)cccc12 | 3.98 µM [rising, partial curve] | 61.5% | 15.8 µM [rising, partial curve, poor fit] | 25.1 µM [rising, partial curve, poor fit] | 80.2% |  | 
CN(Cc1ccco1)c1nc(-c2ccc3c(c2)OCO3)nc2ccccc12 | 12.6 µM [rising, partial curve] | 27.9% | 0.0501 µM [rising, full curve, poor fit] | 0.0562 µM [rising, full curve] | 35.7% |  | 
Cc1nc2sccn2c(=O)c1CCN1CCC(=C(c2ccccc2)c2ccc(F)cc2)CC1 | 7.94 µM [rising, partial curve] | 87.3% | 14.1 µM [rising, partial curve] | 14.1 µM [rising, partial curve] | 119% |  | 
Cc1ccc(S(=O)(=O)/C=C\C#N)cc1 | 15.8 µM [rising, partial curve] | -41% | 8.91 µM [falling, full curve, poor fit] | 5.62 µM [falling, full curve] | -82.2% |  | 
COc1cccc(Cn2c(=O)c(C)nc3cnc(OCc4ccccc4)nc32)c1 | 10 µM [rising, partial curve] | 15.4% | 1.12 µM [rising, partial curve, poor fit] | 0.0251 µM [rising, full curve, poor fit] | 17.9% |  | 
COc1ccc(CNc2ncnc3ccc(-c4ccccc4OC)cc23)c(OC)c1 | 15.8 µM [rising, single point] | 8.19% | 7.08 µM [rising, single point] | 3.98 µM [rising, single point] | -1.57% |  | 
CS(=O)(=O)c1ccc(-c2cc(Br)sc2-c2ccc(F)cc2)cc1 | 15.8 µM [rising, single point] | 122% | 4.47 µM [rising, full curve] | 4.47 µM [rising, full curve] | 163% |  | 
Cc1c(Cl)cccc1Nc1ccccc1C(=O)O | 7.94 µM [rising, partial curve] | 35.9% | 22.4 µM [rising, partial curve, poor fit] | 31.6 µM [rising, partial curve] | 67.5% |  | 
CCCCCCCNS(=O)(=O)c1cccc2c(Cl)cccc12 | 5.01 µM [rising, partial curve, poor fit] | 36.3% | 12.6 µM [rising, full curve, poor fit] | 14.1 µM [rising, partial curve, poor fit] | 18.7% |  | 
COc1ccccc1CNc1ccnc(-c2ccccc2OC)n1 | 12.6 µM [rising, single point] | 9.86% | 1.78 µM [rising, full curve] | 1.58 µM [rising, full curve] | 9.38% |  | 
Cc1cccc(CNc2nc(-c3ccccc3CN(C)C)nc3ccccc23)c1 | 10 µM [rising, partial curve] | -40.6% | 11.2 µM [falling, partial curve] | 20 µM [falling, partial curve] | -99.7% |  | 
COc1cccc(Cn2c(=O)c(-c3ccccc3)nc3cnc(OC)nc32)c1 | 10 µM [falling, partial curve, poor fit] | 33.2% | 0.562 µM [rising, full curve] | 0.794 µM [rising, full curve] | 43.3% |  | 
CN(Cc1ccco1)c1ncnc2ccc(-c3ccccc3Cl)cc12 | 12.6 µM [rising, partial curve] | 12.5% | 0.891 µM [rising, full curve] | 0.794 µM [rising, full curve] | 9.17% |  | 
COc1ccccc1CNc1cc(-c2ccccc2CN(C)C)ncn1 | 5.01 µM [rising, partial curve] | 41.5% | 17.8 µM [rising, partial curve, poor fit] | 35.5 µM [rising, partial curve, poor fit] | 47.6% |  | 
N#Cc1ccc(CN2CCC3(CC2)CCN(C(=O)c2csnn2)CC3)cc1 | 0.794 µM [rising, single point] | 11.8% | 3.55 µM [rising, single point] | 3.55 µM [rising, partial curve] | 17.6% |  | 
Cc1nc2cnc(Oc3cccc(Cl)c3)nc2n(Cc2ccc(F)cc2)c1=O | 10 µM [rising, single point] | 29% | 2.82 µM [rising, full curve, poor fit] | 3.16 µM [rising, full curve] | 34.4% |  | 
COc1cccc(-c2ccc3ncnc(NCc4cccnc4)c3c2)c1 | 12.6 µM [rising, single point] | 5.55% | 6.31 µM [rising, single point] | 5.01 µM [rising, partial curve, poor fit] | 6.35% |  | 
Cc1noc(C)c1C(=O)N1CCC2(CCCN(c3ncccn3)C2)CC1 | 3.98 µM [rising, single point] | 38.5% | 0.0282 µM [rising, full curve, poor fit] | 0.0398 µM [rising, full curve, poor fit] | 51.1% |  | 
COc1ccc(CNc2ncncc2-c2ccccc2OC)c(OC)c1 | 10 µM [rising, single point] | 18% | 2.51 µM [rising, single point] | 2.24 µM [rising, partial curve, poor fit] | 24.4% |  | 
Nc1cc(=O)[nH]c(N)n1 | 0.0794 µM [falling, full curve, poor fit] | -25.2% | 2.82 µM [falling, full curve, poor fit] | 3.16 µM [falling, full curve, poor fit] | -23.9% |  | 
COc1ccc(CNc2ncncc2-c2ccc3c(c2)OCO3)c(OC)c1 | 10 µM [rising, partial curve, poor fit] | 10.5% | 0.562 µM [rising, partial curve] | 0.562 µM [rising, partial curve] | 19% |  | 
COc1cccc(Cn2c(=O)c(C)nc3cnc(Oc4ccccc4)nc32)c1 | 12.6 µM [rising, single point] | 34.3% | 3.16 µM [rising, partial curve, poor fit] | 2 µM [rising, full curve, poor fit] | 44.8% |  | 
Cn1cccc1C(=O)N1CCC2(CCCN(C(=O)Nc3cccc(C#N)c3)C2)CC1 | 0.631 µM [rising, single point] | 9.5% | 0.355 µM [rising, partial curve, poor fit] | 0.0282 µM [rising, full curve, poor fit] | 15.5% |  | 
CC(C)C[C@@H](NC(=O)OCC1c2ccccc2-c2ccccc21)C(=O)O | 15.8 µM [rising, single point] | 54.3% | 14.1 µM [rising, partial curve, poor fit] | 14.1 µM [rising, partial curve, poor fit] | 68.9% |  | 
CN(C)Cc1ccccc1-c1nccc(N(C)Cc2ccco2)n1 | 7.94 µM [rising, partial curve] | 37.8% | 25.1 µM [rising, single point] | 31.6 µM [rising, single point] | 42.9% |  | 
COc1ccc(C(=O)N2CCC[C@@]3(CCN(Cc4ccccc4OC)C3)C2)cc1 | 12.6 µM [rising, single point] | 25.4% | 2 µM [rising, full curve, poor fit] | 1.78 µM [rising, full curve] | 32.1% |  | 
O=C(O)CC/C=C\C[C@@H]1CO[C@H](c2ccccc2Cl)O[C@@H]1c1ccccc1O | 15.8 µM [rising, single point] | 39.8% | 25.1 µM [rising, partial curve, poor fit] | 28.2 µM [rising, partial curve, poor fit] | 53.9% |  | 
CN(Cc1ccco1)c1nc(-c2ccoc2)nc2ccccc12 | 10 µM [rising, single point] | 31.8% | 4.47 µM [rising, partial curve] | 3.98 µM [rising, partial curve] | 36.9% |  | 
COc1ccccc1-c1nc(NCc2ccccc2)c2ccccc2n1 | 12.6 µM [rising, partial curve] | -33.9% | 39.8 µM [falling, single point] | 39.8 µM [falling, single point] | -57.9% |  | 

Reference: PubChem BioAssay (NCATS)
